No constants are given. Whether binding was seen depends on the method and setting. Some entries that bind do so weakly or less than the wild type. Where a sequence is shown, tags or fusion partners need not be part of it.
Tests used:
[1] = target: Gal4-ANIC-BP-1 fusion protein (bait encoded by pDBLeu-ANIC-BP-1); assay: yeast two-hybrid screen (Proquest, Gal4-based), bait pDBLeu-ANIC-BP-1; β-galactosidase filter assay and growth selection
[2] = target: Gal4-ANIC-BP-1 fusion protein (bait encoded by pDBLeu-ANIC-BP-1); assay: yeast two-hybrid screen (Proquest, Gal4-based), bait pDBLeu-ANIC-BP-1; selection on -Trp, -Leu, -His medium with 25 mM 3-aminotriazole
[3] = target: LexA-ANIC-BP-1 fusion protein (bait encoded by pLexA-MCS-ANIC-BP-1); assay: LexA-based yeast two-hybrid (Matchmaker, EGY48/pSH18-32), bait pLexA-MCS-ANIC-BP, prey pPC86-ANIC-BPligand; growth without leucine and blue colour on X-Gal

Measured: binding

B1: ANIC-BP-1 ligand (prey encoded by vector pPC86-ANIC-BPligand, Gal4-activation domain fusion) (ligand, not shown: large carriers)
chain: MGAVARAHGGLRVARARESVAGGRHRGAGRPGARAAGAAAGLVRAEAGGRRAGRGRRPGRGLPTGGGGLAAAAVGREVAQGLCDAIRLDGGLDLLLRLLQAPELETRVQAARLLEQILVAENRDRVARIGLGVILNLAKEREPVELARSGSGILEHMFKHSEETCQRLVAAGGLDAVLYWCRRTDPALLRHCALALGNCALHGGQAVQRRMVEKRAAEWLFPLAFSKEDELLSLHACLAVAVLATNKEVEREVERSGTLALVEPLVASLDPGRFARCLVDASDTSQGRGPDDLQRLVPLLDSNRLEAQCIGAFYLCAEAAIKSLQGKTKVFSDIGAIQSLKRLVSYSTNGTKSALAKRALRLLGEEVPRPILPSVPSWKEAEVQTWLQQIGFSKYCESFREQQVDGDLLLRLTEEELQTDLGMKSGITRKRFFRELTELKTFANYSTCDRSNLADWLGSLDPRFRQYTYGLVSCGLDRSLLHRVSEQQLLEDCGIHLGVHRARILTAAREMLHSPLPCTGGKPSGDTPDVFISYRRNSGSQLASLLKVHLQLHGFSVFIDVEKLEAGKFEDKLIQSVMGARNFVLVLSPGALDKCMQDHDCKDWVHKEIVTALSCGKNIVPIIDGFEWPEPQVLPEDMQAVLTFNGIKWSHEYQEATIEKIIRFLQGRSSRDSSAGSDTSLEGAAPMGPT
binds: [1] | [2] | [3]

— patent US20030148446A1
